This assay can be described thus: qHTS Assay for Lipid Storage Modulators in Drosophila S3 Cells.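 As to cell number change: cells counted by Cell Tracker Red CMTPX staining in the red channel.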 The settings on record: BODIPY lipid droplet fluorescence, 18-24 h; for cell number change: measured here: cell count max response, cells fed with added oleic acid. The essentials: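 Drosophila S3 cells got compounds at several concentrations plus oleic acid (400 uM solution). Laser-scanning cytometry with 488 nm excitation read lipid droplets at 500-530 nm and cells at 575-640 nm. Percent activity was relative to 20 uM Triacsin C.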
(qHTS replaces the single test concentration by a dilution series.)

Setting [1] is: measured here: cell number channel AC50, cells fed with added oleic acid.
Where [2] appears, read: measured here: lipid fluorescence (Fed channel) AC50, cells fed with added oleic acid.

The structures appear in SMILES notation. The list shows a part of the results. The main result of the screen is listed elsewhere. These columns were measured beside it and carry no call. Compounds called inactive in the main read-out are mostly missing here. The note in brackets gives the kind of curve behind each potency; many fits are weak.

Consider `CN1CCN(Cc2nc3cc(NC(=O)COc4ccc([N+](=O)[O-])cc4)ccc3n2C)CC1`, for which the cell number change was determined as 40.6%. Also, the AC50 under setting [1] is 29.1 µM [rising, single point]. Further, the AC50 under setting [2] is 29.1 µM [rising, single point].

Turning to `COc1ccc([N+](=O)[O-])cc1N(CC(=O)N1CCN(Cc2ccccc2)CC1)S(C)(=O)=O`, the cell number change turned out to be 21.5%. Besides, the AC50 under setting [2] is 18.4 µM [rising, single point].

As for `Cc1cccc(N2CCN(S(=O)(=O)c3ccc4[nH]c(=O)c(=O)[nH]c4c3)CC2C)c1` (configuration not stated), the cell number change was -33.1%. Besides, the AC50 under setting [1] was 29.1 µM [falling, single point]. Also, under setting [2], the AC50 is 0.13 µM [falling, full curve, poor fit].

Take `COc1ccc(CCNc2ccc(N3C(=O)CC(C)C3=O)cc2[N+](=O)[O-])cc1OC` (configuration not stated): the cell number change is -37.2%. Also, the AC50 under setting [1] is 8.2 µM [falling, partial curve]. The AC50 under setting [2] was 13 µM [falling, partial curve].

Regarding `O=C(N/N=C/c1cn(-c2cccs2)nc1-c1ccccc1)c1ccccc1O`, the cell number change was -43.8%. For the same compound, the AC50 under setting [1] is 20.6 µM [falling, single point]. Further, the AC50 under setting [2] is 20.6 µM [falling, single point].

Turning to `Nc1c(C(=O)NCc2ccccc2)c2nc3ccccc3nc2n1-c1ccc2c(c1)OCO2`, the cell number change was 22.4%. Further, the half-maximal activity concentration (AC50) under setting [1] is 0.116 µM [rising, full curve]. Besides, the concentration at half-maximal activity (AC50) under setting [2] was 0.082 µM [rising, full curve].

In the case of `CCCCCCCNC(=O)C1(CC2CC(c3cccc(Br)c3)=NO2)CCN(C(=O)C2(C)CC2)CC1` (configuration not stated), the cell number change stood at 18.4%. Moreover, the AC50 under setting [2] is 29.1 µM [rising, single point].

For `Cc1ccc(SCc2nc(-c3cccnc3)no2)cc1`, the cell number change was 0.992%. Under setting [2], the AC50 was 3.26 µM [rising, full curve].

Regarding `CCn1c(CCc2ccccc2)n[nH]c1=S`, the cell number change was 11.7%. The AC50 under setting [2] was 0.13 µM [falling, full curve, poor fit].

Consider `CCC(C(=O)N/N=C/c1cccnc1)c1ccccc1` (configuration not stated), for which the cell number change was -3.24%.

Consider `CCOC(=O)[C@H]1[C@H]2COc3ccccc3[C@@H]2N2C(=O)c3cc(Cl)ccc3NC(=O)[C@@]12C`, for which the cell number change was -10.2%. The concentration at half-maximal activity (AC50) under setting [1] is 0.0092 µM [falling, full curve, poor fit]. Also, the AC50 under setting [2] is 29.1 µM [falling, single point].

Consider `CC(=O)Nc1c(C(N)=O)oc2ccc(Cl)cc12`, for which the cell number change stood at 20%.

For the compound `Cc1nc2c(C)cccc2c2c1CCN2c1ccccc1F`, the cell number change worked out at 17.8%. Besides, the AC50 under setting [2] was 3.66 µM [rising, full curve, poor fit].

Take `N=C(N)SCP(=O)(c1ccccc1)c1ccccc1`: the cell number change is 11%. The AC50 under setting [1] is 4.11 µM [rising, single point]. Moreover, the AC50 under setting [2] is 4.11 µM [rising, single point].

As for `NC(=O)c1sc2nc(N3CCCCC3)c3c(c2c1N)CCCC3`, the cell number change is -30.6%. The AC50 under setting [1] was 29.1 µM [falling, single point].

`O=C(N1CCOCC1)N1CCN(S(=O)(=O)c2ccc(F)cc2)CC1`: the cell number change worked out at 18.5%.

Consider `O=C(N/N=C\c1ccc2c(c1)OCO2)c1cncc(Br)c1`, for which the cell number change was -11.8%. Besides, the AC50 under setting [2] was 0.326 µM [rising, single point].

Regarding `CCc1ccc(NC(=O)C2CCN(S(=O)(=O)c3ccc4c(c3)N(C(C)=O)CCO4)CC2)cc1`, the cell number change was -5.31%. Further, the AC50 under setting [2] was 11.6 µM [falling, single point].

On to `COc1ccc([N+](=O)[O-])cc1N(CC(=O)N1CCOCC1)S(C)(=O)=O`, for which the cell number change is -37.7%.

Take `Cc1ccc(NC2Sc3ccccc3NC2=O)cc1Cl` (configuration not stated): the cell number change is -65.9%. Also, the AC50 under setting [1] was 14.6 µM [falling, partial curve]. Moreover, under setting [2], the half-maximal activity concentration (AC50) was 18.4 µM [falling, partial curve].

As for `CC(CN1CCN(Cc2ccccc2)CC1)c1ccccc1` (configuration not stated), the cell number change is 4.74%. Also, under setting [2], the AC50 was 29.1 µM [rising, single point].

Regarding `CC(C)=CCOc1c2ccoc2cc2oc(=O)ccc12`, the cell number change worked out at 23.7%. Further, the AC50 under setting [2] was 1.64 µM [rising, partial curve].

Take `COc1ccc([C@@H]2[C@@H]3C(=O)N(C(C)(C)C)C(=O)[C@@H]3[C@]3(Cc4ccc(Cl)cc4)C(=O)N(c4cccc(Br)c4)C(=O)N23)cc1`: the cell number change came to 91.9%.

Turning to `CCOC(=O)C1(Cc2ccccc2)CCN(Cc2cnn(CC)c2)CC1`, the cell number change stood at 0.358%. Also, the half-maximal activity concentration (AC50) under setting [2] was 4.61 µM [rising, single point].

For `COc1cccc(/C=C/C(=O)OCC(=O)c2ccc(S(=O)(=O)N3CCCCC3)cc2)c1OC`, the cell number change was -20.3%.

Regarding `CCn1c(N2CCN(C(=S)NC)CC2)nc2ccccc21`, the cell number change was -7.73%. In addition, the AC50 under setting [2] was 0.58 µM [falling, single point].

As for `O=C(CSc1nnc(NC(=O)c2cccc(F)c2)s1)NCc1ccco1`, the cell number change worked out at 4.27%. Moreover, the AC50 under setting [2] was 0.13 µM [rising, full curve, poor fit].

Consider `Cc1cc(NC(=O)Nc2ccc(Cl)cc2)n(C)n1`, for which the cell number change was -37.6%. Under setting [1], the AC50 is 3.26 µM [falling, partial curve, poor fit]. Besides, under setting [2], the AC50 is 29.1 µM [falling, single point].

With `CCCCN(C)C(=O)c1cn(C)c2ccc(S(=O)(=O)N3CCC(C)CC3)cc2c1=O`, the cell number change turned out to be 14.9%.

In the case of `O=C1CCCC2=C1C(c1ccccc1)n1c(s/c(=C/c3cccc(F)c3)c1=O)=N2` (configuration not stated), the cell number change was determined as 22.9%. Moreover, the AC50 under setting [2] was 0.651 µM [falling, full curve].

On to `OCC[C@H]1C[C@H](O)[C@@H](O)[C@]2(OCCc3ccccc32)O1`, for which the cell number change was -43.5%. Further, the AC50 under setting [1] is 29.1 µM [falling, single point].

Turning to `CCc1ccccc1NS(=O)(=O)Cc1ccccc1`, the cell number change was -11.3%.

Turning to `Cn1nc(C(=O)OCc2ccc(Br)cc2F)c2ccccc2c1=O`, the cell number change was -0.583%.

For `CCC(C)(C)NC(=O)c1sccc1Oc1ccc(F)cc1[N+](=O)[O-]`, the cell number change amounted to 58.3%.

In the case of `C=CCC1c2cccc(C(=O)O)c2C(=O)N1c1ccc(Cl)cc1` (configuration not stated), the cell number change was determined as 61.8%. For the same compound, under setting [1], the AC50 was 13 µM [rising, partial curve].

As to `NNC(=O)CSc1nc(-c2ccccc2)nc2c1CCCC2`, the cell number change was -84.2%.

For the compound `CCc1cc2c3c(c(=O)oc2cc1OCC(=O)OC)CCCC3`, the cell number change was -4.56%.

Consider `CCCNC(=O)C(Cc1ccc(I)cc1)NC(=O)c1ccc(C#N)cc1` (configuration not stated), for which the cell number change was 5.43%. Besides, the AC50 under setting [1] is 0.0058 µM [falling, full curve, poor fit]. The AC50 under setting [2] is 0.00461 µM [falling, full curve, poor fit].

For `NC1=NC[C@H](Cc2ccc(O)cc2)N1CCc1cccc2ccccc12`, the cell number change is -5.56%.

Regarding `Cc1cc(C)cc(NC(=O)CSc2nnnn2-c2cccnc2)c1`, the cell number change came out at 11.3%. In addition, the AC50 under setting [2] is 6.51 µM [rising, single point].

For `CCOC(=O)c1c(NC(=O)C2CC2)sc(C)c1CC`, the cell number change was -33.8%. Also, the AC50 under setting [1] is 29.1 µM [falling, single point]. For the same compound, the AC50 under setting [2] was 16.4 µM [falling, single point].

For `COC(=O)C(C)(C)ONC(=O)Nc1ccc([N+](=O)[O-])cc1`, the cell number change was 60.5%. Besides, under setting [1], the AC50 is 20.6 µM [rising, single point].

On to `CCOc1ccc(NS(=O)(=O)c2ccc(NC(=O)C3CCCO3)cc2)cc1` (configuration not stated), for which the cell number change stood at 27.3%. Further, the AC50 under setting [2] was 3.66 µM [rising, partial curve, poor fit].

For the compound `COc1ccccc1NC(=S)NC(=O)c1ccc(-c2ccc(Cl)cc2)o1`, the cell number change was found to be 14.3%. Under setting [2], the AC50 is 16.4 µM [rising, single point].

On to `COc1ccc(OC)c(NC(=O)CSc2ccc(-c3cccnc3)nn2)c1`, for which the cell number change was 6.16%. Under setting [1], the AC50 is 3.66 µM [rising, single point]. For the same compound, the half-maximal activity concentration (AC50) under setting [2] is 6.51 µM [rising, single point].

Consider `CCCCc1ccc(NC(=O)Nc2cccnc2)cc1`, for which the cell number change turned out to be 37.8%.

On to `N#C/C(=C/c1ccc(O)c(O)c1)c1nc2ccccc2[nH]1`, for which the cell number change was -37.7%. Under setting [1], the AC50 was 29.1 µM [falling, single point]. In addition, the AC50 under setting [2] was 29.1 µM [falling, single point].

In the case of `CCOC(=O)C1=C(C)N=c2s/c(=C\c3ccc(OCC(=O)O)cc3)c(=O)n2C1c1ccccc1OC` (configuration not stated), the cell number change was -28.1%. Moreover, the AC50 under setting [2] is 29.1 µM [falling, single point].

Take `Cc1cc(C(=O)NC(C)c2ccccc2)c2cc(F)ccc2n1` (configuration not stated): the cell number change came to 21.7%. Besides, the AC50 under setting [2] is 25.9 µM [falling, single point].

Take `CCc1ccccc1NC(=O)CN1CCN(C(=O)CNC(=O)c2ccc(-c3ccccc3)cc2)CC1`: the cell number change was -14%. Besides, under setting [2], the AC50 is 16.4 µM [rising, single point].

In the case of `CC(C)n1nnnc1SCC(=O)Nc1ccc2c(c1)OCCO2`, the cell number change was -0.195%. Besides, the AC50 under setting [2] was 8.2 µM [rising, partial curve].

On to `O=C(/C=C/c1ccc(Cl)cc1Cl)c1ccc[nH]1`, for which the cell number change is -58.6%. Further, the AC50 under setting [1] was 32.6 µM [falling, single point].

In the case of `COc1ccc(C(CNC(=O)c2ccc(Br)o2)N2CCN(C)CC2)cc1` (configuration not stated), the cell number change is -34.1%. For the same compound, under setting [2], the AC50 was 25.9 µM [falling, partial curve].

Turning to `Cc1ccc(-c2cnc3cc(C)nn3c2)cc1`, the cell number change is 51.9%. Moreover, the AC50 under setting [1] is 2.06 µM [rising, full curve].

On to `CC(C)(C)n1ncc2c(=O)n(CC(=O)c3ccc(Cl)cc3)cnc21`, for which the cell number change is -4.75%. Also, under setting [1], the AC50 was 0.731 µM [rising, full curve]. Further, under setting [2], the AC50 is 1.03 µM [rising, full curve].

For `CCc1nnc(NC(=O)CCC(=O)N2CCN(CCOc3ccc(C)cc3)CC2)s1`, the cell number change is -8.56%. Under setting [2], the AC50 was 0.461 µM [falling, full curve, poor fit].

For `C/C(CC(=O)Nc1cccc(Cl)c1Cl)=N\NC(=O)c1ccccc1C`, the cell number change is -0.289%. For the same compound, the AC50 under setting [2] was 0.461 µM [falling, full curve, poor fit].

On to `Cc1ccc(/C=C/C(=O)OCn2nnc3ccccc3c2=O)o1`, for which the cell number change came out at 12.3%. For the same compound, the AC50 under setting [2] is 13 µM [rising, partial curve].

With `CCOc1ccc(NC(=O)CSc2ccc(-c3ccco3)nn2)cc1`, the cell number change stood at 25.7%. Also, under setting [2], the AC50 was 29.1 µM [rising, single point].

`CC(C)N(Cc1ccccc1)C(=O)c1cccs1`: the cell number change was -25.8%. For the same compound, the AC50 under setting [2] is 18.4 µM [falling, single point].

Turning to `COc1ccccc1CNC(=O)c1cccnc1`, the cell number change worked out at 1.92%. For the same compound, under setting [2], the AC50 was 6.51 µM [rising, single point].

Usually AC50 stands for the concentration giving half of the maximal activity seen. The low end stands for greater potency, the high end for weaker potency.

For the origin of these results see PubChem BioAssay AID2685 (National Center for Advancing Translational Sciences (NCATS), 2010).
